Data published in patent US10166253B2, “Positively charged co-polymers for use as antimicrobial agents” (priority 2014, dated 2019).
Some results were stated once for a whole list of compounds, not compound by compound.

Test system: P. aeruginosa (Strain PAO1)
Test: Antimicrobial susceptibility testing by flow cytometry-based assay (LIVE/DEAD BacLight, Syto9/PI)
Type: cell-based
Settings: 50 μg/ml, 30 minutes
Experimental: E. coli (strain NCTC 10418), P. aeruginosa (Strain PAO1) and S. aureus (Wood 46, NCTC 7121) cells were grown in 5 mL of Todd Hewitt Broth medium (THB; Sigma-Aldrich). Bacteria were cultivated at 37° C. for 15 h in a 15 mL tube to obtain late-log phase cultures. Bacterial cultures were pelleted at 3096 g for 10 minutes; the supernatant was discarded and bacteria were resuspended in phosphate-buffered saline (PBS) supplemented with 40 mg/ml human albumin to mimic chemical properties of blood. Bacteria were diluted to a standardized inoculum of 10^9 CFU/mL.
Bacteria were treated with GA, LL-37, Piperacillin/Tazobactam or Vancomycin in varying concentrations, i.e. 50, 25, 10 or 2 μg/ml, for 30 minutes. As a positive control, bacteria were treated with 7% isopropanol. Hereafter, bacteria were pelleted at 3096 g for 10 minutes; the supernatant was discarded and bacteria were resuspended in PBS. […]
The antibacterial effect of GA on the gram-negative strain P. aeruginosa was tested by carrying out an experiment as described in Example 1. […] Although the untreated control stained positive for PI, this seemed to be explained by the capability of intact P. aeruginosa to secrete large quantities of DNA to the extracellular milieu.

Substance: Glatiramer acetate [GA]
- bacteria killed as compared to the untreated control: more than 40%
